Experimental data reported in publication PMC2982801.
Where two headings read alike, the source gives them in different places. These are yes or no findings as the source states them, for the method shown. Binding seen in cells or lysates may run through a third protein. These calls come from enrichment with a bait or labelling near it, and not all partners need be listed.

Protein sequences, listed by entry. Tags and fused reporters are not part of them.
UniProt Q924A0: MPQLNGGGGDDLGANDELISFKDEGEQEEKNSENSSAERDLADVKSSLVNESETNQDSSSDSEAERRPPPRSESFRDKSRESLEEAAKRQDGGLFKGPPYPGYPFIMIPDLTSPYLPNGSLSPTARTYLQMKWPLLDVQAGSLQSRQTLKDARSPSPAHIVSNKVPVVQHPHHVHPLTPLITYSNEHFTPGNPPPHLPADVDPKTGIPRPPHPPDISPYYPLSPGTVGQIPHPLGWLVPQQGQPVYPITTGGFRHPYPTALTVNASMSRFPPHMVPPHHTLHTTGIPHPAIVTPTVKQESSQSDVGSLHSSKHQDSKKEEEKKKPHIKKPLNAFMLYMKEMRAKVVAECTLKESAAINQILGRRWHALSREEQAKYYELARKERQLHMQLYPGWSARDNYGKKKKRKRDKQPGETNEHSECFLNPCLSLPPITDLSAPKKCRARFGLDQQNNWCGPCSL
UniProt Q6XZL8: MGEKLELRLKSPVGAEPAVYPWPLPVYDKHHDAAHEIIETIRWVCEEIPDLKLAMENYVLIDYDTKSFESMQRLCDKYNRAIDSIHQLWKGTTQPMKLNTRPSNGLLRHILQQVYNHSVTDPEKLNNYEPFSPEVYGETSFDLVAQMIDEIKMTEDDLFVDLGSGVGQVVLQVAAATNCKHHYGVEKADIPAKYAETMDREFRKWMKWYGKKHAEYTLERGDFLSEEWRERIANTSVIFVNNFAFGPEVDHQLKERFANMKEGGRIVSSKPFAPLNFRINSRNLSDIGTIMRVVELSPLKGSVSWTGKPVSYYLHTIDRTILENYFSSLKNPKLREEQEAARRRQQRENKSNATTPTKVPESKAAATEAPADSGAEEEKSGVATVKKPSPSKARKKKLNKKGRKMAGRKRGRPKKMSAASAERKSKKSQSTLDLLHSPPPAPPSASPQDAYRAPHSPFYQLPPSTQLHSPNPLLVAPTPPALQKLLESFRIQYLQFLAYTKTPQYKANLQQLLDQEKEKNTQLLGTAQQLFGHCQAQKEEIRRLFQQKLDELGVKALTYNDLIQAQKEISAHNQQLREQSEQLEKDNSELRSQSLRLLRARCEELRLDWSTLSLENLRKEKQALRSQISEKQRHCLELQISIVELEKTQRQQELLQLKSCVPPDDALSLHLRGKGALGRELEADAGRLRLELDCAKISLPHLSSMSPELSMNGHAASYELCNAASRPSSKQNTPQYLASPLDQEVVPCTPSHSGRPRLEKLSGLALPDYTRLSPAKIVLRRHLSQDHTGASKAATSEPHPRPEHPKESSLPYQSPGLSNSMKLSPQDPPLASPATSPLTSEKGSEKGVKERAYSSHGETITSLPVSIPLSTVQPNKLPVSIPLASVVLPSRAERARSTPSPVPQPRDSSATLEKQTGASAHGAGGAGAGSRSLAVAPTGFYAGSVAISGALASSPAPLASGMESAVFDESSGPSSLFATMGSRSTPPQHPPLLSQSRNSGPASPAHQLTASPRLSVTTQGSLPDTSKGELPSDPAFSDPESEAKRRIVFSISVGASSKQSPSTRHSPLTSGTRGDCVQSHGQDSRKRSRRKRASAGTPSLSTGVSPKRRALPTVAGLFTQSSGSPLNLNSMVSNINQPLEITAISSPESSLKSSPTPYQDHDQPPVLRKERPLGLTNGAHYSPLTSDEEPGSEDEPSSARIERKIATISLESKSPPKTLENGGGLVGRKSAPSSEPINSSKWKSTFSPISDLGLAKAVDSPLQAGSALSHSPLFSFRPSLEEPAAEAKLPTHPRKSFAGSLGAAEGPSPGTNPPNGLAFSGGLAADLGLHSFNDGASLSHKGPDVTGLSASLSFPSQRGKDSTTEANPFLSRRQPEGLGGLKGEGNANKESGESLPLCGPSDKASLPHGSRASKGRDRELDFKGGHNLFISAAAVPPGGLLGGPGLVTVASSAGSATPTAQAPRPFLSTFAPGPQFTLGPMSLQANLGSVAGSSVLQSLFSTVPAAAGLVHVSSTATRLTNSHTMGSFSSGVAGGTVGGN

What was measured:
[1] = biological target: Tcf4 (mouse (endogenous in small intestinal crypts)) (UniProt Q924A0); test: affinity purification with mass spectrometry; endogenous Tcf4 immunopurified from purified mouse small intestinal crypt fractions, isotype-matched IgGs as control; SDS-PAGE, Coomassie staining, in-gel trypsin digestion, nanoLC-MS/MS
[2] = biological target: Tcf4 (mouse (endogenous in small intestinal crypts)) (UniProt Q924A0); test: as above; remark: listed apart in the source

Row | binding [1] | binding [2] | Molecule
1 | binds |  | Dot1l (from UniProt Q6XZL8 1-1540) (enzyme)
2 |  | binds | Mllt10/Af10 (protein, UniProt O54826 1-1068) MVSSDRPVSLEDEVSHSMKEMIGGCCVCSDERGWAENPLVYCDGHGCSVAVHQACYGIVQVPTGPWFCRKCESQERAARVRCELCPHKDGALKRTDNGGWAHVVCALYIPEVQFANVSTMEPIVLQSVPHDRYNKTCYICDEQGRESKAATGACMTCNKHGCRQAFHVTCAQFAGLLCEEEGNGADNVQYCGYCKYHFSKLKKSKRGSNRSYEQSLSDSSSHSQDKHHEKEKKKYKEKDKHKQKHKKQPEPSPALVPSLTVTTEKTYTSTSNNSISGSLKRLEDTAARFTNANFQEVSAHTSSGKDVSEARGSEGKGKKSSAHSSGQRGRKPGAGRNPGTAVSASSPFPQGSFSGTPGSVKSSSGSSVQSPQDFLSFTDSDLRSDSYTHTQQPSSTKDVHKGESGSQEAAVNSFSSLVGHPVTSTVISQPKSFDNSPGELGSSSLPTAGYKRAQTSGIEEEAVKEKKRKGNKQSKHGPGRPKGNKNQENVSHLSVSSASPTSSVASAAGSVTSSSLQKSPTLLRNGSLQSLSVGSSPVGSEISMQYRHDGACPTTTFSELLNAIHNGIYNSNDVAVSFPNVVSGSGSSTPVSSSHIPQQSSGHLQQVGALSPSAASSVTPAAATTQANTVSGSSLSQAPAHMYGSRLNQNPSMAVLIAQSESSQTDQDLGDNARSLGGRGSSPRGSLSPRSPVSNLQLRYDQPSNSSLETVPPVAASIEQLLERQWSEGQQFLLEQGTPGDILGMLKSLHQLQVENRRLEEQIKNLTAKKERLQLLNAQLSVPFPAITTNPSPSHQMHTYTAQTAPPPDSLNSSKSPHIGNSFLPDNSLPVLNQDLTSSGQSTSSSSALSTPPPAGQSPAQQSSGVSGVQQVNGVTVGALASGMQTVTSTIPAVSAVGGIIGALPGNQLAINGIVGALNGVIQTPVTISQNPAPLTHTSVPPNAAHPMPAAALTNSASGLGLLSDQQRQMFIQQQQFQQLLNSQQLTPEQHQAFLYQLMQQQHHPPELQQLQLPGPTQIPINNLLAGAQAPPLHTATTNPFLTIHGDSTSQKVTRLSDKTGPVAQEKS
